According to PubChem BioAssay (Tox21):
The inconclusive results got no clear call from the source; some entries with a clear call stand among them for comparison. For part of these data: Potencies beside an inconclusive call are fits to weak or partial responses and may not hold up. Some structures have more than one record in an assay (separate samples or runs), and their calls can disagree. Active and inactive are the calls of the source. Unless noted, calls follow the shape of the full dose curve.

Chains of the proteins cited; added tags and fusions are not shown. Lines headed by an entry give the natural chain unless they say otherwise; changes in a name come on top.
UniProt P28223, whole entry, looked up: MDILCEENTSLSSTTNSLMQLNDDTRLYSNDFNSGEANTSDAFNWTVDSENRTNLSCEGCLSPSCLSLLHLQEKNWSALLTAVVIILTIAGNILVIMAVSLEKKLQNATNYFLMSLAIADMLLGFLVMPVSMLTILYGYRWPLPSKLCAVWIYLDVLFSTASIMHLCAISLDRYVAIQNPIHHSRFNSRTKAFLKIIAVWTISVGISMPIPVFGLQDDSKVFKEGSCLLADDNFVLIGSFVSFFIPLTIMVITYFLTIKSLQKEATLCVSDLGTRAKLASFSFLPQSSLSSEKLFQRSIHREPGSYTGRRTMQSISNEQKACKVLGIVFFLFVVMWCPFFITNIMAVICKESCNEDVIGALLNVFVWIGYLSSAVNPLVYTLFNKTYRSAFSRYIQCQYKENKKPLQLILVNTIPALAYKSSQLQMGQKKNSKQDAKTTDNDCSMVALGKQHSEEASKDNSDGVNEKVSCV
UniProt P14416, whole entry, looked up: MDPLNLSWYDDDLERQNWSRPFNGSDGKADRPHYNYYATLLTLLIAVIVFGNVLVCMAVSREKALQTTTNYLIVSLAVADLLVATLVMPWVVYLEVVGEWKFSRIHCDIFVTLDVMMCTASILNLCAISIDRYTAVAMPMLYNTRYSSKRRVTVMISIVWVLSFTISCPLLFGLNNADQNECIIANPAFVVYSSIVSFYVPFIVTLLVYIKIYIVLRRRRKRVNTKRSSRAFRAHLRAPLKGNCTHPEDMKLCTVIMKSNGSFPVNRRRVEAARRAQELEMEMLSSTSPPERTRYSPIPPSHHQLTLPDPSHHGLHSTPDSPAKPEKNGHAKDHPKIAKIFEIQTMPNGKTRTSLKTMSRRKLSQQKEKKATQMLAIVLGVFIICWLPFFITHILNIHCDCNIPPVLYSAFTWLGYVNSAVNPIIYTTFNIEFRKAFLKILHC
UniProt P11229: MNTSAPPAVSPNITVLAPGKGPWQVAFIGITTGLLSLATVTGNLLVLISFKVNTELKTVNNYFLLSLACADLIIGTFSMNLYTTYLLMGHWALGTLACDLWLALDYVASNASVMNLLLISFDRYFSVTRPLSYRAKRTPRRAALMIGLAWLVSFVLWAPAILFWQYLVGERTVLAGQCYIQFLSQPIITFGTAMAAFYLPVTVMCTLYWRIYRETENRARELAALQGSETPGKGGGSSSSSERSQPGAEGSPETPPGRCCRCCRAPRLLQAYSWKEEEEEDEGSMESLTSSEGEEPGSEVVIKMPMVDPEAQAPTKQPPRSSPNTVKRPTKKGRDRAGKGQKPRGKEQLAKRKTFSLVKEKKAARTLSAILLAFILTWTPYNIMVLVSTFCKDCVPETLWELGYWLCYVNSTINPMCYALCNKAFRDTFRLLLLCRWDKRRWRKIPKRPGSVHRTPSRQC

Assays:
[1] = target: 5-hydroxytryptamine receptor 2A (Homo sapiens) (UniProt P28223); test: 5-hydroxytryptamine receptor 2A (HTR2A) small molecule antagonists, cell-based qHTS assay (AID 1963586); settings: HTR2A-CHO cells, DOI-induced calcium flux, fluorescence; series mostly up to 61.5 µM; also: nearly all actives have a fitted effect of over 45% in size; also: potency is read from the fitted curve at half-maximal effect
Summary of the method: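 CHO cells stably expressing human HTR2A were plated for 18 h at 37 C, then loaded with calcium dye for 1 h. Compounds were preincubated 5 min at room temperature before DOI (4 nM solution) was added. Kinetic fluorescence was read for 3 min.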

[2] = target: Beta-2 adrenergic receptor (Homo sapiens) (UniProt P07550); test: Adrenergic beta2 receptor (ADRB2) small molecule agonists, cell-based qHTS assay (AID 1963593); settings: CHO-ADRB2 cells, cAMP HTRF, 30 min; also: potency is read from the fitted curve at half-maximal effect;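 as to activation: CHO cells stably overexpressing human ADRB2; % is scaled to controls: 0 for no effect and ±100 for the full control effect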
Summary of the method: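 CHO cells stably over-expressing ADRB2 were plated overnight at 37C, then dosed with compounds plus a stimulation mix containing 100uM IBMX and 25uM Ro-20-1724 for 0.5hr at room temperature. cAMP was measured by HTRF competition, 1hr.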

[3] = target: D(2) dopamine receptor (Homo sapiens) (UniProt P14416); test: Dopamine D2 receptor (DRD2) small molecule antagonists, cell-based qHTS assay (AID 1963595; active = well fitted inhibition curve with a large enough effect in the signal ratio in the repeat runs, with a control signal flat; inconclusive = weak or mixed curves, or effect the other way; the % refers to the signal ratio; also: potency is read from the fitted curve at half-maximal effect; as to activity change, negative = inhibition: % is scaled to controls: 0 for no effect and ±100 for the full control effect); settings: HEK293-DRD2 cAMP HTRF antagonist mode
Summary of the method: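 In this cell-based antagonist screen, compounds act for 10 min at room temperature before a 30 min challenge with 12 nM quinpirole and 200 nM NKH477. cAMP is quantified by HTRF competition in DRD2-HEK293 cells containing 0.1 mM Ro20-1724.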

[4] = target: 5-hydroxytryptamine receptor 2A (Homo sapiens) (UniProt P28223); test: 5-hydroxytryptamine receptor 2A (HTR2A) small molecule agonists, cell-based qHTS assay (AID 1963587); settings: HTR2A-CHO cells, calcium flux fluorescence, agonist mode; series mostly up to 76.8 µM; also: nearly all actives have a fitted effect of over 30% in size; also: potency is read from the fitted curve at half-maximal effect; as to activation: % is scaled to controls: 0 for no effect and ±100 for the full control effect
Summary of the method: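 HTR2A-CHO cells, plated 18 h at 37 C/5% CO2, dye-loaded 1 h at 37 C; compounds in DMSO added by pin tool (agonist mode). Intracellular calcium flux read as kinetic fluorescence on FDSS over 2 min at 1 s intervals.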

[5] = target: Muscarinic acetylcholine receptor M1 (Homo sapiens) (UniProt P11229); test: Cholinergic receptor muscarinic 1 (CHRM1) small molecule antagonists, cell-based qHTS assay (AID 1963588); settings: CHRM1-CHO antagonist mode, calcium flux fluorescence; series mostly up to 61.5 µM; also: nearly all actives have a fitted effect of over 40% in size; also: potency is read from the fitted curve at half-maximal effect
Summary of the method: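 Compounds were tested at 15 concentrations in three independent runs. Dye-loaded CHRM1-CHO cells were exposed 5 min at room temperature before stimulation by acetylcholine added at 50nM. Intracellular calcium was read kinetically on FDSS for 3 min.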

[6] = cAMP Responsive Elements (CRE) small molecule antagonists, cell-based qHTS assay (AID 1963591; active = well fitted inhibition curve with a large enough effect in the signal ratio in the repeat runs, not every such curve was filed as active; inconclusive = weak or mixed curves, or effect the other way; the % refers to the signal ratio; also: % is scaled to controls: 0 for no effect and ±100 for the full control effect); settings: CRE-bla HEK293T, beta-lactamase FRET ratio; activity change, negative = inhibition: at 92.4 µM (top of the series) unless noted
Summary of the method: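 First, CRE-bla HEK293T cells settled 18 h at 37 C. Next, compound and 0.25 uM final NKH477 were applied for 3 h. Last, LiveBLAzer B/G substrate was loaded for 2 h at room temperature.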

[7] = target: Beta-2 adrenergic receptor (Homo sapiens) (UniProt P07550); test: Adrenergic beta2 receptor (ADRB2) small molecule antagonists, cell-based qHTS assay (AID 1963592); settings: CHO-ADRB2 cells, isoproterenol-stimulated cAMP HTRF ratio, 0.5 h; activity change, negative = inhibition: at 92.4 µM (top of the series) unless noted; also: potency is read from the fitted curve at half-maximal effect; nearly all actives have a fitted effect of over 50% in size
Summary of the method: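 Assay format: CHO-ADRB2 cells, 18-20hr seeding at 37C/5% CO2, then compound plus 1nM isoproterenol agonist mix for 0.5hr RT. Homogeneous time-resolved fluorescence cAMP detection after 1hr, expressed as 665/615 nm ratio.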

[8] = target: D(2) dopamine receptor (Homo sapiens) (UniProt P14416); test: Dopamine D2 receptor (DRD2) small molecule agonists, cell-based qHTS assay (AID 1963594); settings: HEK293-DRD2 cAMP HTRF, agonist mode, 30 min; activation: at 92.4 µM (top of the series) unless noted; also: nearly all actives have a fitted effect of over 35% in size; also: potency is read from the fitted curve at half-maximal effect
Summary of the method: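 HEK293 cells stably expressing DRD2 were cultured 24 h at 37 C, then given Ro20-1724 (0.1 mM final) and compounds for 10 min at room temperature. NKH477 (200nM) was then added for 30 min. cAMP was read by HTRF.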

[9] = target: Muscarinic acetylcholine receptor M1 (Homo sapiens) (UniProt P11229); test: Cholinergic receptor muscarinic 1 (CHRM1) small molecule agonists, cell-based qHTS assay (AID 1963589); settings: CHRM1-CHO cells, agonist mode, calcium flux fluorescence; series mostly up to 76.8 µM; also: potency is read from the fitted curve at half-maximal effect; nearly all actives have a fitted effect of over 35% in size
Summary of the method: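 Homogeneous fluorescence calcium flux, agonist mode. Human M1-expressing CHO cells; compound dosed at 15 concentrations, three independent runs; signal sampled every 1 sec.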

[10] = activation: at 92.4 µM (top of the series) unless noted
[11] = activity change, negative = inhibition: at 92.4 µM (top of the series) unless noted

Compound: CCCC(C)CC (stereo not given)
- Potency [1]: inactive
- Potency [2, 10]: inconclusive: 1350 nM [inhibitor, single point]

Compound: C[Si](C)(C)O[Si](O)(O)O
- Potency [1]: inactive
- Potency [2, 10]: inactive

Compound: CCCCCCC(C)(C)S
- Potency [1]: inactive
- activation [2, 10]: inconclusive: 0.311% [at 42.5 µM]
- activation ([2]; at 92.4 µM (top of the series)): inactive: 11.3%
- activity change, negative = inhibition [3, 11]: inconclusive: -29.3%
- activity change, negative = inhibition ([3]; at 42.5 µM (top of the series)): inactive: 11.5%

Compound: c1ccc(OCCOc2ccccc2)cc1
- Potency [1]: inconclusive: 4720 nM [inhibitor, full curve]
- activation [2, 10]: inconclusive: 1.29%
- activation ([2]; at 92.4 µM (top of the series)): inactive: 5.28%

Compound: C/C=C/C=C/C(=O)O
- Potency [1]: inconclusive: 0.1 nM [inhibitor]
- Potency [2, 10]: inconclusive: 5450 nM [inhibitor, full curve, poor fit]
- activation ([2]; at 8.39 µM (top of the series)): inconclusive: 12.9%
- activation ([2]; at 92.4 µM (top of the series)): inconclusive: -27.4%

Compound: NCCOCCO
- Potency [1]: inconclusive: 3.4 nM [inhibitor, full curve, poor fit]
- Potency [2, 10]: inactive

Compound: O=C(NC(Cc1cc(=O)[nH]c2ccccc12)C(=O)O)c1ccc(Cl)cc1 (stereo not given)
- Potency [1]: inconclusive: 0.6 nM [inhibitor]
- activation [2, 10]: inconclusive: -19.6% [at 42.5 µM]

Compound: CCOC(=O)Cn1cccc1-c1nc(-c2ccc(OC)cc2)c(-c2ccc(OC)cc2)s1
- Potency [1]: inconclusive: 41 nM [inhibitor, full curve, poor fit]
- Potency [2, 10]: inactive

Compound: OCc1ccc(Cl)cc1Cl
- Potency [1]: inconclusive: 594 nM [inhibitor, single point]
- activation [2, 10]: inconclusive: 3.45% [at 42.5 µM]
- activation ([2]; at 92.4 µM (top of the series)): inactive: -20.1%

Compound: CC(C)(C)C1CCCCC1=O (stereo not given)
- Potency [1]: inactive
- activation [2, 10]: inconclusive: 30.6%

Compound: O=C(O)C1CCC1
- Potency [1]: inconclusive: 11.6 nM [inhibitor, full curve, poor fit]
- Potency [2, 10]: inactive

Compound: O=C1c2ccccc2C(=O)N1CO
- Potency [1]: inconclusive: 1700 nM [inhibitor, single point]
- Potency [2, 10]: inactive

Compound: CN1CCC(=C2c3ccccc3CCc3sccc32)CC1
- Potency [4]: inconclusive: 21300 nM [activator, single point]
- Potency [5]: active: 14.5 nM
- activity change, negative = inhibition [6]: inconclusive: 17.7% [at 42.4 µM]
- Potency [7]: inconclusive: 29800 nM [inhibitor, partial curve, poor fit]
- Potency [2, 10]: inconclusive: 29800 nM [inhibitor, partial curve, poor fit]
- Potency [3, 11]: active: 11900 nM

Compound: CCCCCCCCCC/C=C/C#N
- Potency [4]: inactive
- Potency [5]: inactive
- activation [2, 10]: inconclusive: -2.72%

Compound: CC(C)CCCCCCOC(=O)CCCCC(=O)OCCCCCCC(C)C
- Potency [1]: inconclusive: 4210 nM [inhibitor, partial curve, poor fit]
- activation [8]: inconclusive: 6.52%

Compound: O=C(O)CN(CCOCCOCCN(CC(=O)O)CC(=O)O)CC(=O)O
- Potency [1]: inconclusive: 91.8 nM [inhibitor, single point]
- Potency [8]: inconclusive: 133 nM [single point]

Compound: COc1cc(C(=O)N2CCCCCCC2)cc(OC)c1OC
- Potency [1]: inactive
- Potency [8]: inactive

Compound: CC(C)=CC(=O)C=C(C)C
- Potency [1]: inconclusive: 372 nM [inhibitor, single point]
- Potency [2, 10]: inactive
- activity change, negative = inhibition [3, 11]: inconclusive: -1.1%

Compound: COC(=O)c1cccc(C(=O)OC)c1
- Potency [4]: inconclusive: 54900 nM [activator, single point]
- Potency [9]: inconclusive: 54900 nM [rising, single point]
- Potency [7]: active: 15400 nM
- activation [2, 10]: inconclusive: 15.5%
- activation ([2]; at 92.4 µM (top of the series)): inactive: -2.61%

Compound: COCCc1ccccn1
- Potency [1]: inconclusive: 365 nM [inhibitor, single point]
- Potency [3, 11]: inactive

Compound: CCN1CCCC(OC(=O)C(c2ccccc2)c2ccccc2)C1 (stereo not given)
- Potency [4]: active: 75.6 nM
- Potency [5]: active: 4100 nM
- Potency [6]: inactive
- Potency [2, 10]: inactive
- Potency [8]: inconclusive: 13300 nM [rising, single point]
- activity change, negative = inhibition [3, 11]: inconclusive: 5.23% [at 42.5 µM]

Compound: O=CCCCC=O
- Potency [4]: inactive
- Potency [5]: inactive
- activation [2, 10]: inconclusive: -8.6%
- activation ([2]; at 92.4 µM (top of the series)): inactive: 11%

Compound: CC(C)(CO)[C@@H](O)C(=O)NCCC(=O)O
- Potency [1]: inactive
- Potency [3, 11]: inconclusive: 4.3 nM [rising, full curve, poor fit]

Compound: CC(=O)NC(=O)c1ccccc1O
- Potency [1]: inactive
- activation [2, 10]: inconclusive: -5.82% [at 42.5 µM]
- Potency [8]: inconclusive: 9810 nM

Compound: COc1ccc(C(=O)NCc2ccc(OCCN(C)C)cc2)cc1OC
- Potency [4]: inactive

Compound: C[C@@H]1CCN(C(=O)[C@H](CCCN=C(N)N)NS(=O)(=O)c2cccc3c2NC[C@H](C)C3)[C@@H](C(=O)O)C1
- Potency [1]: inactive
- Potency [2, 10]: inconclusive: 106 nM [inhibitor, single point]
- Potency [3, 11]: inactive
